# Reference: the supplement of paper PMC6411743
# Chains of the proteins cited; added tags and fusions are not shown. Lines headed by an entry give the natural chain unless they say otherwise; changes in a name come on top.
# UniProt P17041: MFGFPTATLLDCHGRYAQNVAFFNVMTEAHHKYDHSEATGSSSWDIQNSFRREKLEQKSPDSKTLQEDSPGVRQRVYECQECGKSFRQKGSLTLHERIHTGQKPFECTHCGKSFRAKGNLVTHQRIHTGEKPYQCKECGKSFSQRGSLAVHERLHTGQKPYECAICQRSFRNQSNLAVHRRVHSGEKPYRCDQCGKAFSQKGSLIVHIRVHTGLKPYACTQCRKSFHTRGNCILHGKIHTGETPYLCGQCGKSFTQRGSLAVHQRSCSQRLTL
# UniProt P34059: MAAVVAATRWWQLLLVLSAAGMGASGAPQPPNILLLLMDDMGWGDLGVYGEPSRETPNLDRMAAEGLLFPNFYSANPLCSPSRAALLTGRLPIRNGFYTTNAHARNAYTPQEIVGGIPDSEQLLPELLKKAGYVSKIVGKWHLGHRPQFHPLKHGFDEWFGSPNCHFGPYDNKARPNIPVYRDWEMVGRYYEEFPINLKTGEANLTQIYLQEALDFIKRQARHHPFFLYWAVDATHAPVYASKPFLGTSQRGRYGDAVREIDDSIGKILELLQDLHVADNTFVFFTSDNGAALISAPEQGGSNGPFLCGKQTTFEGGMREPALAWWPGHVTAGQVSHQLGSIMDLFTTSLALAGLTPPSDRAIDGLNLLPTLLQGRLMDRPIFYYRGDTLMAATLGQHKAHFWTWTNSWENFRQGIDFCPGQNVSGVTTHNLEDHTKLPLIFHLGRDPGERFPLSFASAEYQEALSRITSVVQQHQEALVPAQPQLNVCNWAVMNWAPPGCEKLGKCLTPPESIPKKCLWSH
# UniProt P34932: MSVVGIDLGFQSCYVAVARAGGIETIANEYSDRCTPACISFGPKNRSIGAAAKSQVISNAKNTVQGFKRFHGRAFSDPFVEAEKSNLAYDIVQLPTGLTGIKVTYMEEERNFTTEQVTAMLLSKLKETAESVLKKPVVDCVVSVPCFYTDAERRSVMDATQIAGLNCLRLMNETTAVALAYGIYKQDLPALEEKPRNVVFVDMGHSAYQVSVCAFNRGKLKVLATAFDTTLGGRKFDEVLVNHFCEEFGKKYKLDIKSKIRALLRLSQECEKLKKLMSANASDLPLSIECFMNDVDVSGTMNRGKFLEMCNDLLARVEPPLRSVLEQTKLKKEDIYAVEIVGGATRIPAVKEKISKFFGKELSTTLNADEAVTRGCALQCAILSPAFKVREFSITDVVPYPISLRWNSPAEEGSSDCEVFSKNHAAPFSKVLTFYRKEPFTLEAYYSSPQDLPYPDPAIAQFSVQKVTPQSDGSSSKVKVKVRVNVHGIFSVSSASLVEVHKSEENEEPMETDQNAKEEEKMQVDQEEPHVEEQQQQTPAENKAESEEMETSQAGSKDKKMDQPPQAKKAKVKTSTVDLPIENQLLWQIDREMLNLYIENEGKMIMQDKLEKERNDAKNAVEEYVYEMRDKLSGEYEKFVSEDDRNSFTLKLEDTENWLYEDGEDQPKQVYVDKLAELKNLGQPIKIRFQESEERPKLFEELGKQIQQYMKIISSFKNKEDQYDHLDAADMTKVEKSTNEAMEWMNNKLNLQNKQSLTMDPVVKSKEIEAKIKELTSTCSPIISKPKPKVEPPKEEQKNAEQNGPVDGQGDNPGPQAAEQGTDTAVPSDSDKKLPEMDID
# UniProt P32189: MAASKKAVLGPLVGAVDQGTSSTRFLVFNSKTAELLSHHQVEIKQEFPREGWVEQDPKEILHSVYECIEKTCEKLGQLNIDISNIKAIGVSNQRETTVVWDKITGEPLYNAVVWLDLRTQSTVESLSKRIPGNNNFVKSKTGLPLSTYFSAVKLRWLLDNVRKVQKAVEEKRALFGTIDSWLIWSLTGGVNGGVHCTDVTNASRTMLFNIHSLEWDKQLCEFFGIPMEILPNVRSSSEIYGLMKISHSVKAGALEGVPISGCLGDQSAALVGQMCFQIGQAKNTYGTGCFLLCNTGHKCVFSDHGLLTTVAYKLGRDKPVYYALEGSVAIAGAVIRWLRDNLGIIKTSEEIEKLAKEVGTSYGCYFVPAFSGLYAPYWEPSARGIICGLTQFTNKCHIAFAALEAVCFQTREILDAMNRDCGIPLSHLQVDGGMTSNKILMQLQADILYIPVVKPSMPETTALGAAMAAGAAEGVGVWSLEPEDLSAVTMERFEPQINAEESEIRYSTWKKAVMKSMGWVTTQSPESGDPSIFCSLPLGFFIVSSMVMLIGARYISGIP
# UniProt P29084: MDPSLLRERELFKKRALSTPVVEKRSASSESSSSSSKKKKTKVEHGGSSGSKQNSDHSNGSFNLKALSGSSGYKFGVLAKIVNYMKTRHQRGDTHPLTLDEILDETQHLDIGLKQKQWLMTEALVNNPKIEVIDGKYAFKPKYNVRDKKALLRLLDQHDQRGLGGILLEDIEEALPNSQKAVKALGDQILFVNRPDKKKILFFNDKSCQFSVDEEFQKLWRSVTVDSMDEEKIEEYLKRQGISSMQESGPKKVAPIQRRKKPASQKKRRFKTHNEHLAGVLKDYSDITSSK
# UniProt P17050: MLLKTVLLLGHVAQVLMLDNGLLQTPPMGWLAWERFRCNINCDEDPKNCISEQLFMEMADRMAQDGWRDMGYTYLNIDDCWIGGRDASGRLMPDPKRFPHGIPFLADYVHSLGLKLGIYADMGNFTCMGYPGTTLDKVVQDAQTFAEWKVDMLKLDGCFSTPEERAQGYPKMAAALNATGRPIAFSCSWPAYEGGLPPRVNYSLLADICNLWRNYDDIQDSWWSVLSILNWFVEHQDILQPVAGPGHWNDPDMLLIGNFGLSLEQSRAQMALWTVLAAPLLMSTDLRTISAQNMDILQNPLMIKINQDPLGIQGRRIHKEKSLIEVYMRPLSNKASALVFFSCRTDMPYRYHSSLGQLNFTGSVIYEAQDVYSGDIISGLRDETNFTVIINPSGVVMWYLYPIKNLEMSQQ
# UniProt P31937: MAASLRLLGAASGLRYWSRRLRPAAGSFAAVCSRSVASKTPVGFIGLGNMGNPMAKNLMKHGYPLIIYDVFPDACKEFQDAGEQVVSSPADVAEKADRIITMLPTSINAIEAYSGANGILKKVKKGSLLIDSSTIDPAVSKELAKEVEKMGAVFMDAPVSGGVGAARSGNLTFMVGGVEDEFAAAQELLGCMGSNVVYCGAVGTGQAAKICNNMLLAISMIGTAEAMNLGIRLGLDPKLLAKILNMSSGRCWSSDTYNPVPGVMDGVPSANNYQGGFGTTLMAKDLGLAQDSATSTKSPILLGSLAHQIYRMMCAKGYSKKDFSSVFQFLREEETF
# UniProt P30084: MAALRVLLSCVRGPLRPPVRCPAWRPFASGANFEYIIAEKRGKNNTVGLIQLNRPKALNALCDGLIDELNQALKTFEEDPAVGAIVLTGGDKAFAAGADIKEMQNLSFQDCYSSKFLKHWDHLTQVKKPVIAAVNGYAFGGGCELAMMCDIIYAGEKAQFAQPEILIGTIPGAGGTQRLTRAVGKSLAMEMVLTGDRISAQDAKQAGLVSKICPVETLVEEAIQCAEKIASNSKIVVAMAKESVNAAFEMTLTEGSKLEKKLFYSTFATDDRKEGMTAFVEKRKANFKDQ
# UniProt P29590: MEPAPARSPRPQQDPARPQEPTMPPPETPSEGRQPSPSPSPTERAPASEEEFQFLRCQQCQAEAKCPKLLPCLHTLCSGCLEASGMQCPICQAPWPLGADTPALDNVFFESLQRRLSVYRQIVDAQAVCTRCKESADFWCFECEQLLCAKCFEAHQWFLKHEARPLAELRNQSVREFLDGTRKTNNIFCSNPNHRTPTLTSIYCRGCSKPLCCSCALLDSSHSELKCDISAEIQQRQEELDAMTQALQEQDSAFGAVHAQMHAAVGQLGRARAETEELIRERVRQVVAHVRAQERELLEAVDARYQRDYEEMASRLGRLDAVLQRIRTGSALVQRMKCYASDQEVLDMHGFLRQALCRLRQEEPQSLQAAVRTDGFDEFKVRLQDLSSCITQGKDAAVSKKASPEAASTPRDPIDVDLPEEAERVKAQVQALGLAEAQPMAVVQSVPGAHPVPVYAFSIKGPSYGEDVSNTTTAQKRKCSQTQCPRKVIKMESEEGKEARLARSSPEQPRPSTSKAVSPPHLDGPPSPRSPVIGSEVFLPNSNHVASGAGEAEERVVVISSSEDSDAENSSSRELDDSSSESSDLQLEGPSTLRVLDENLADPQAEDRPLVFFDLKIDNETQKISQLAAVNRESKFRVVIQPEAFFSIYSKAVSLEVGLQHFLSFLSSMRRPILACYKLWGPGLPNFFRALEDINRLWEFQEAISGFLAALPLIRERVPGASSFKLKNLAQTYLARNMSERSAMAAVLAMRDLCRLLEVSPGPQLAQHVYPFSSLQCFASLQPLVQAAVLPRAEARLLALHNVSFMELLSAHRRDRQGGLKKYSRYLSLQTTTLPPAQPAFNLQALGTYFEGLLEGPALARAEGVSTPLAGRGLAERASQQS
# UniProt P29083: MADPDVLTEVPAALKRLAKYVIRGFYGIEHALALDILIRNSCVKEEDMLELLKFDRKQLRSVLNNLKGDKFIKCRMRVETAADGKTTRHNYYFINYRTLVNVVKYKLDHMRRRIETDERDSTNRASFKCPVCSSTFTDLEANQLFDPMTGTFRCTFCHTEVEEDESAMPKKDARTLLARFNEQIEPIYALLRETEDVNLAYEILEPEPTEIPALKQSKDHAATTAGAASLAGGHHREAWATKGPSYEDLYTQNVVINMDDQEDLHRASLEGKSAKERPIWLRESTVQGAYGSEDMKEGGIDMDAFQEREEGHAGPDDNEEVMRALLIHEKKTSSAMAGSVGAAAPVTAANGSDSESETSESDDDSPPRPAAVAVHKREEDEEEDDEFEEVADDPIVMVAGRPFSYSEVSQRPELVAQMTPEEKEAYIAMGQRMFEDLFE
# UniProt P17028: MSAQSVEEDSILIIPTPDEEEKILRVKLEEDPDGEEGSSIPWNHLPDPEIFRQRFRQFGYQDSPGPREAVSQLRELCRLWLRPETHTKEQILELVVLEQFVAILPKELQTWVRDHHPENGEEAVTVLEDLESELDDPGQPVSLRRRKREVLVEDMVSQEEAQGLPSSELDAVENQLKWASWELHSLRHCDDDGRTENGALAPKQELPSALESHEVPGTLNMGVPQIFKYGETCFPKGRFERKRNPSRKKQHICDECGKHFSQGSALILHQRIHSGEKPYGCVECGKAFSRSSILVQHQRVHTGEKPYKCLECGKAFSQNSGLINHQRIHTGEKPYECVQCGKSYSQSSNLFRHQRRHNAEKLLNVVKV
# UniProt P17026: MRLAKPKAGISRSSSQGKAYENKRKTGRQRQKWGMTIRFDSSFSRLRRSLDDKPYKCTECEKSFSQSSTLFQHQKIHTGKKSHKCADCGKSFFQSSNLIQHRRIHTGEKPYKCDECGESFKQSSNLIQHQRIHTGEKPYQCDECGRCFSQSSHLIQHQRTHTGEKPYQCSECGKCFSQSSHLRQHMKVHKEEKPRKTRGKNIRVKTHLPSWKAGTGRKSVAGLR
# UniProt P25786: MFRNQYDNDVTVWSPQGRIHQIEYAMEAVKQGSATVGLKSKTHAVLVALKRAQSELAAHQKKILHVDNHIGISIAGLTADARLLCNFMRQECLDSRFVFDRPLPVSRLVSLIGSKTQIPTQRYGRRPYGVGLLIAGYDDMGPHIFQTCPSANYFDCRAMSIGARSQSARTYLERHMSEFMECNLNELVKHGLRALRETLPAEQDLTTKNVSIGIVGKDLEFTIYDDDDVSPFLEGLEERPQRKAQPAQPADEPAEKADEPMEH
# UniProt P17174: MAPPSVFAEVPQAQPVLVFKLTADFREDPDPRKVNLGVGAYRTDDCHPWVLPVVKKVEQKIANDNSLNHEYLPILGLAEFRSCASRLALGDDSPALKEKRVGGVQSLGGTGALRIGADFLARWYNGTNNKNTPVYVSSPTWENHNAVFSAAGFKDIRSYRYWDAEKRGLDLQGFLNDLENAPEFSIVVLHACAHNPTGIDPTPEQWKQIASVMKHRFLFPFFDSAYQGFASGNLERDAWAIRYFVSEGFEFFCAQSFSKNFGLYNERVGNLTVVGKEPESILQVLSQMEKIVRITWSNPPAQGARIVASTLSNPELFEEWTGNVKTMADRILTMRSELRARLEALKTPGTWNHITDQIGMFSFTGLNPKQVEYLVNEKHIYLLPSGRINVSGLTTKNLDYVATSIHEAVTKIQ
# UniProt P17152: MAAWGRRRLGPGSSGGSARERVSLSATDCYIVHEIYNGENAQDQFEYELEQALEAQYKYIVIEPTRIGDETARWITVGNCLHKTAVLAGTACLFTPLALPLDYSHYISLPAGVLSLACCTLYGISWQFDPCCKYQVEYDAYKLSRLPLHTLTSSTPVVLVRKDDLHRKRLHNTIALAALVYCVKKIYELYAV
# UniProt P30048: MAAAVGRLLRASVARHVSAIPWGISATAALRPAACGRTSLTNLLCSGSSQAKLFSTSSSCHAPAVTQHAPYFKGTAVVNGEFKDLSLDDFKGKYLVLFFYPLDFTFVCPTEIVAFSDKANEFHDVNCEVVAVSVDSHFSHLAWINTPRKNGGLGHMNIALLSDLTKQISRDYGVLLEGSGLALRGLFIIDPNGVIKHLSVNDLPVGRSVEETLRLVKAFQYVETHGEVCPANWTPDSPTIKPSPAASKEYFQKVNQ
# ± gives the standard deviation of the averaged measurements. The list shows a part of the results, in another mix than the full data. Most entries show no effect beyond the scatter of the controls.
# Compound: Nc1ncnc2c1ncn2[C@@H]1O[C@H](COP(=O)(O)OP(=O)(O)OP(=O)(O)O)[C@@H](O)[C@H]1O [adenosine triphosphate]
# Test: NP40-soluble protein abundance relative to vehicle (solubility fold change) (ratio); higher = more soluble protein in presence of ATP
# Method in brief: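 Jurkat crude lysate prepared with a Dounce homogeniser was treated at eight concentrations spanning 0.1 to 10 mM, 10 min at room temperature then 3 min at 37 °C. Solubilisation with 0.8% NP40 and benzonase and ultracentrifugation preceded TMT labelling of the supernatant for LC-MS/MS. Fold change against the detergent-processed vehicle was determined per replicate from vsn-normalised intensities, across three independent experiments.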
target,measurement,setting,value
UniProt P32780 and related entries,NP40-soluble protein abundance,concentration: 0.1mM,0.971 ± 0.031
same,NP40-soluble protein abundance,concentration: 0.5mM,1.02 ± 0.049
UniProt P17041,NP40-soluble protein abundance,concentration: 0.1mM,0.971 ± 0.016
same,NP40-soluble protein abundance,concentration: 0.5mM,1 ± 0.029
UniProt P28838 and related entries,NP40-soluble protein abundance,concentration: 0.1mM,0.993 ± 0.049
same,NP40-soluble protein abundance,concentration: 0.5mM,1.01 ± 0.061
GALNS (UniProt P34059),NP40-soluble protein abundance,concentration: 0.1mM,0.952 ± 0.054
same,NP40-soluble protein abundance,concentration: 0.5mM,0.985 ± 0.041
ABCD3 (UniProt P28288),NP40-soluble protein abundance,concentration: 0.1mM,1.06 ± 0.08
same,NP40-soluble protein abundance,concentration: 0.5mM,1.07 ± 0.08
HSPA4 (UniProt P34932),NP40-soluble protein abundance,concentration: 0.1mM,1 ± 0.035
same,NP40-soluble protein abundance,concentration: 0.5mM,1.01 ± 0.047
UniProt P32189 and related entries,NP40-soluble protein abundance,concentration: 0.1mM,1.09 ± 0.044
same,NP40-soluble protein abundance,concentration: 0.5mM,1.08 ± 0.039
UniProt P29374 and related entries,NP40-soluble protein abundance,concentration: 0.1mM,0.972 ± 0.058
same,NP40-soluble protein abundance,concentration: 0.5mM,1.02 ± 0.071
GTF2E2 (UniProt P29084),NP40-soluble protein abundance,concentration: 0.1mM,0.96 ± 0.024
same,NP40-soluble protein abundance,concentration: 0.5mM,0.981 ± 0.041
ACO1 (UniProt P21399),NP40-soluble protein abundance,concentration: 0.1mM,1.05 ± 0.082
same,NP40-soluble protein abundance,concentration: 0.5mM,1.03 ± 0.065
UniProt P23396 and related entries,NP40-soluble protein abundance,concentration: 0.1mM,0.899 ± 0.086
same,NP40-soluble protein abundance,concentration: 0.5mM,0.857 ± 0.1
UniProt P27361,NP40-soluble protein abundance,concentration: 0.1mM,1 ± 0.034
same,NP40-soluble protein abundance,concentration: 0.5mM,1.03 ± 0.031
UniProt P35626,NP40-soluble protein abundance,concentration: 0.1mM,1.04 ± 0.036
same,NP40-soluble protein abundance,concentration: 0.5mM,1.06 ± 0.048
ATP6V1B2 (UniProt P21281),NP40-soluble protein abundance,concentration: 0.1mM,1.03 ± 0.037
same,NP40-soluble protein abundance,concentration: 0.5mM,1.03 ± 0.026
POLR2E (UniProt P19388),NP40-soluble protein abundance,concentration: 0.1mM,1.05 ± 0.052
same,NP40-soluble protein abundance,concentration: 0.5mM,1.05 ± 0.019
UniProt P35658 and related entries,NP40-soluble protein abundance,concentration: 0.1mM,0.9977 ± 0.0083
same,NP40-soluble protein abundance,concentration: 0.5mM,0.983 ± 0.028
NAGA (UniProt P17050),NP40-soluble protein abundance,concentration: 0.1mM,0.983 ± 0.05
same,NP40-soluble protein abundance,concentration: 0.5mM,0.974 ± 0.016
GCH1 (UniProt P30793),NP40-soluble protein abundance,concentration: 0.1mM,0.994 ± 0.031
same,NP40-soluble protein abundance,concentration: 0.5mM,0.9504 ± 0.0056
MAT2A (UniProt P31153),NP40-soluble protein abundance,concentration: 0.1mM,1 ± 0.052
same,NP40-soluble protein abundance,concentration: 0.5mM,1.01 ± 0.056
HIBADH (UniProt P31937),NP40-soluble protein abundance,concentration: 0.1mM,0.948 ± 0.062
same,NP40-soluble protein abundance,concentration: 0.5mM,0.952 ± 0.083
ECHS1 (UniProt P30084),NP40-soluble protein abundance,concentration: 0.1mM,0.989 ± 0.028
same,NP40-soluble protein abundance,concentration: 0.5mM,1.03 ± 0.058
UniProt P29590 and related entries,NP40-soluble protein abundance,concentration: 0.1mM,0.96 ± 0.024
same,NP40-soluble protein abundance,concentration: 0.5mM,0.936 ± 0.037
UniProt P28482,NP40-soluble protein abundance,concentration: 0.1mM,0.987 ± 0.027
same,NP40-soluble protein abundance,concentration: 0.5mM,1.02 ± 0.033
GTF2E1 (UniProt P29083),NP40-soluble protein abundance,concentration: 0.1mM,1.01 ± 0.025
same,NP40-soluble protein abundance,concentration: 0.5mM,1.04 ± 0.063
UniProt P33241 and related entries,NP40-soluble protein abundance,concentration: 0.1mM,0.788 ± 0.056
same,NP40-soluble protein abundance,concentration: 0.5mM,0.942 ± 0.036
PPP2R1A (UniProt P30153),NP40-soluble protein abundance,concentration: 0.1mM,0.979 ± 0.025
same,NP40-soluble protein abundance,concentration: 0.5mM,0.965 ± 0.033
UniProt P30519 and related entries,NP40-soluble protein abundance,concentration: 0.1mM,0.963 ± 0.054
same,NP40-soluble protein abundance,concentration: 0.5mM,0.925 ± 0.049
UniProt P18206 and related entries,NP40-soluble protein abundance,concentration: 0.1mM,0.963 ± 0.019
same,NP40-soluble protein abundance,concentration: 0.5mM,0.982 ± 0.028
ZNF24 (UniProt P17028),NP40-soluble protein abundance,concentration: 0.1mM,1.02 ± 0.023
same,NP40-soluble protein abundance,concentration: 0.5mM,1.03 ± 0.049
ZNF22 (UniProt P17026),NP40-soluble protein abundance,concentration: 0.1mM,1.1 ± 0.12
same,NP40-soluble protein abundance,concentration: 0.5mM,1.08 ± 0.055
AKT2 (UniProt P31751),NP40-soluble protein abundance,concentration: 0.1mM,1.06 ± 0.088
same,NP40-soluble protein abundance,concentration: 0.5mM,1.02 ± 0.081
UniProt P25786 and related entries,NP40-soluble protein abundance,concentration: 0.1mM,0.976 ± 0.029
same,NP40-soluble protein abundance,concentration: 0.5mM,0.962 ± 0.014
GOT1 (UniProt P17174),NP40-soluble protein abundance,concentration: 0.1mM,0.999 ± 0.067
same,NP40-soluble protein abundance,concentration: 0.5mM,1 ± 0.035
TUBG1 (UniProt P23258),NP40-soluble protein abundance,concentration: 0.1mM,1.05 ± 0.09
same,NP40-soluble protein abundance,concentration: 0.5mM,1.08 ± 0.076
MCM5 (UniProt P33992),NP40-soluble protein abundance,concentration: 0.1mM,1.01 ± 0.056
same,NP40-soluble protein abundance,concentration: 0.5mM,0.983 ± 0.013
TMEM11 (UniProt P17152),NP40-soluble protein abundance,concentration: 0.1mM,1.05 ± 0.14
same,NP40-soluble protein abundance,concentration: 0.5mM,0.96 ± 0.15
UniProt P30048 and related entries,NP40-soluble protein abundance,concentration: 0.1mM,1 ± 0.042
same,NP40-soluble protein abundance,concentration: 0.5mM,1.03 ± 0.027
UniProt P23469 and related entries,NP40-soluble protein abundance,concentration: 0.1mM,1.17 ± 0.056
same,NP40-soluble protein abundance,concentration: 0.5mM,1.17 ± 0.11
UniProt P32969 and related entries,NP40-soluble protein abundance,concentration: 0.1mM,0.928 ± 0.11
same,NP40-soluble protein abundance,concentration: 0.5mM,0.919 ± 0.17
UniProt P35580 and related entries,NP40-soluble protein abundance,concentration: 0.1mM,0.956 ± 0.03
same,NP40-soluble protein abundance,concentration: 0.5mM,1.09 ± 0.073
UniProt P32321 and related entries,NP40-soluble protein abundance,concentration: 0.1mM,0.987 ± 0.027
same,NP40-soluble protein abundance,concentration: 0.5mM,0.921 ± 0.078
ATF1 (UniProt P18846),NP40-soluble protein abundance,concentration: 0.1mM,1.05 ± 0.082
same,NP40-soluble protein abundance,concentration: 0.5mM,0.945 ± 0.056
same,NP40-soluble protein abundance,concentration: 1mM,0.986 ± 0.2
same,NP40-soluble protein abundance,concentration: 2mM,0.951 ± 0.033
same,NP40-soluble protein abundance,concentration: 4mM,1.02 ± 0.14
same,NP40-soluble protein abundance,concentration: 6mM,0.999 ± 0.054
same,NP40-soluble protein abundance,concentration: 8mM,0.97 ± 0.074
same,NP40-soluble protein abundance,concentration: 10mM,0.917 ± 0.068

# Some of the entries above, set out differently:
target	measurement	setting	value
HIBADH (UniProt P31937)	NP40-soluble protein abundance	concentration: 0.1mM	0.948 ± 0.062
same	NP40-soluble protein abundance	concentration: 0.5mM	0.952 ± 0.083
ECHS1 (UniProt P30084)	NP40-soluble protein abundance	concentration: 0.1mM	0.989 ± 0.028
same	NP40-soluble protein abundance	concentration: 0.5mM	1.03 ± 0.058

# Two entries from above, bar-delimited.
target | measurement | setting | value
NAGA (UniProt P17050) | NP40-soluble protein abundance | concentration: 0.1mM | 0.983 ± 0.05
same | NP40-soluble protein abundance | concentration: 0.5mM | 0.974 ± 0.016
